Laboratory results reported in the supplement of paper PMC10849652.
The other results are listed elsewhere or left out.

Sequences of proteins named here, by UniProt entry; tags and fusion partners are left off. A change or cut given only in a name is not applied to a line headed by its entry.
UniProt O95825: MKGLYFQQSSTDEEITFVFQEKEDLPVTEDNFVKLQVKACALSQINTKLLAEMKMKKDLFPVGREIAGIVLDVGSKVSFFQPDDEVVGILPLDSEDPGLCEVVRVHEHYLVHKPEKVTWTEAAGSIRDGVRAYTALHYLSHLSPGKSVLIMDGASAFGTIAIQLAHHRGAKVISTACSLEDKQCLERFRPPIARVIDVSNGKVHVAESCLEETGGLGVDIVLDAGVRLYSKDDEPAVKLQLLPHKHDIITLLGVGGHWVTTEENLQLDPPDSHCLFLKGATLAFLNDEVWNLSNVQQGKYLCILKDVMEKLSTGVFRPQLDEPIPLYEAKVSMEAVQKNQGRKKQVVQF
UniProt Q9BSW2: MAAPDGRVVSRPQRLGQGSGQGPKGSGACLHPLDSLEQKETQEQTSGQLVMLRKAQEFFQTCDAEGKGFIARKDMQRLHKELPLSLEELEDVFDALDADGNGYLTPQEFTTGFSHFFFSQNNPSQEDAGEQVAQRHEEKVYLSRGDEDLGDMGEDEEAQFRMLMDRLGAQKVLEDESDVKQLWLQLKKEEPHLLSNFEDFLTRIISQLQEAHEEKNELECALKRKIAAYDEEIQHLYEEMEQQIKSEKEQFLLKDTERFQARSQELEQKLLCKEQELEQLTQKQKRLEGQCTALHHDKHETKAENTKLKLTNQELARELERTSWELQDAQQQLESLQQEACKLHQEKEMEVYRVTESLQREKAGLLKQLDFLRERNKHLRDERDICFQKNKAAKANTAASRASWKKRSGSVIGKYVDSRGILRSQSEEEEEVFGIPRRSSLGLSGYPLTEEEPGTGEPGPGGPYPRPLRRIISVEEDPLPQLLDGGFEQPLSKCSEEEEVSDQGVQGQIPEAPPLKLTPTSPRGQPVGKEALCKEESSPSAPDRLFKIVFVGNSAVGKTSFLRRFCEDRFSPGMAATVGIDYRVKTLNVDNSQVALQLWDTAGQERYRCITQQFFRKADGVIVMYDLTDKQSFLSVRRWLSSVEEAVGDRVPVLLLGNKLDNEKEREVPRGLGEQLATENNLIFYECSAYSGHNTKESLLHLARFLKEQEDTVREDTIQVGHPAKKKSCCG
UniProt Q8NI60: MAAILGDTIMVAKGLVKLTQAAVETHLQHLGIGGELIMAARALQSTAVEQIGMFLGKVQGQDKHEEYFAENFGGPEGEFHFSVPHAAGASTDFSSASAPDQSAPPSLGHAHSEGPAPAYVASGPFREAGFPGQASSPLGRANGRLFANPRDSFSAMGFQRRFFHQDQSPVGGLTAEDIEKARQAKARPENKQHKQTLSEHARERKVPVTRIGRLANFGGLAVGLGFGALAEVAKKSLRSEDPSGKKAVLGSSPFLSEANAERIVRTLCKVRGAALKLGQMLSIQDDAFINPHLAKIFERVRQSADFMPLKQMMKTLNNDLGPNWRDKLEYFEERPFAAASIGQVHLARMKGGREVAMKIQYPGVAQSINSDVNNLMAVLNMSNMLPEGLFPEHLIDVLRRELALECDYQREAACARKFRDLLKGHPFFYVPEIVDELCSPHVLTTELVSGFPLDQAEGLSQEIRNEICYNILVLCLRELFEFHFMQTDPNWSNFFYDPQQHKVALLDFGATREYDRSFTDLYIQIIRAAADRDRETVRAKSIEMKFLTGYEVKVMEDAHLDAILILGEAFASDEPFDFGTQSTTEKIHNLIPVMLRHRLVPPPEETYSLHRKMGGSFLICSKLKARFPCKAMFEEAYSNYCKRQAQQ
UniProt Q49B96: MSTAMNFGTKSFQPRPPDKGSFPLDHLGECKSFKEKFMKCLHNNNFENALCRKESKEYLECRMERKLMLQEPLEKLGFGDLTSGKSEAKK
UniProt P36551: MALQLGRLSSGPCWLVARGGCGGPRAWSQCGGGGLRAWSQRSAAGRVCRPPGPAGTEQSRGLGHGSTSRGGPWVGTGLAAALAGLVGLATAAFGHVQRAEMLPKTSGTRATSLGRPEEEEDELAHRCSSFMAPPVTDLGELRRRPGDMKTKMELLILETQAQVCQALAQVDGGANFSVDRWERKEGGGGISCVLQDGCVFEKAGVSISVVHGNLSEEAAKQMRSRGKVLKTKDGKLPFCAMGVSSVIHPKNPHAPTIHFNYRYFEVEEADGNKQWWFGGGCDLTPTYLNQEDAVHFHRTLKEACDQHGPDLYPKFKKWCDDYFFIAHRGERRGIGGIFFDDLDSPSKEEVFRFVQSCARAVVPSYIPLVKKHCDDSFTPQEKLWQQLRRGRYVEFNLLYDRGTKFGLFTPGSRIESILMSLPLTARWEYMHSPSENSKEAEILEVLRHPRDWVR
UniProt P31146: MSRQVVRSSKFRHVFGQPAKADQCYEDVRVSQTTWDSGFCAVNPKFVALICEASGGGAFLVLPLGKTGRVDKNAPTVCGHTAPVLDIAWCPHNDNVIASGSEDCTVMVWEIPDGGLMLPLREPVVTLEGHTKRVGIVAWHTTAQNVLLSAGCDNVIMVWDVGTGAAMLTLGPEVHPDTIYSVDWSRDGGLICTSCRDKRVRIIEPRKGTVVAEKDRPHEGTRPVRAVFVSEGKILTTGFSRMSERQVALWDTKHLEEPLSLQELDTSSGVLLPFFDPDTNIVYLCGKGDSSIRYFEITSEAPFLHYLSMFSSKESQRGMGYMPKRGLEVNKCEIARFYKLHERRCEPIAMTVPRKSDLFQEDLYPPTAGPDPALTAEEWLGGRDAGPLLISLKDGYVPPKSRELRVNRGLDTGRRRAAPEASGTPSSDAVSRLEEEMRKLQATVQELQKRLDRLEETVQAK
UniProt P50416: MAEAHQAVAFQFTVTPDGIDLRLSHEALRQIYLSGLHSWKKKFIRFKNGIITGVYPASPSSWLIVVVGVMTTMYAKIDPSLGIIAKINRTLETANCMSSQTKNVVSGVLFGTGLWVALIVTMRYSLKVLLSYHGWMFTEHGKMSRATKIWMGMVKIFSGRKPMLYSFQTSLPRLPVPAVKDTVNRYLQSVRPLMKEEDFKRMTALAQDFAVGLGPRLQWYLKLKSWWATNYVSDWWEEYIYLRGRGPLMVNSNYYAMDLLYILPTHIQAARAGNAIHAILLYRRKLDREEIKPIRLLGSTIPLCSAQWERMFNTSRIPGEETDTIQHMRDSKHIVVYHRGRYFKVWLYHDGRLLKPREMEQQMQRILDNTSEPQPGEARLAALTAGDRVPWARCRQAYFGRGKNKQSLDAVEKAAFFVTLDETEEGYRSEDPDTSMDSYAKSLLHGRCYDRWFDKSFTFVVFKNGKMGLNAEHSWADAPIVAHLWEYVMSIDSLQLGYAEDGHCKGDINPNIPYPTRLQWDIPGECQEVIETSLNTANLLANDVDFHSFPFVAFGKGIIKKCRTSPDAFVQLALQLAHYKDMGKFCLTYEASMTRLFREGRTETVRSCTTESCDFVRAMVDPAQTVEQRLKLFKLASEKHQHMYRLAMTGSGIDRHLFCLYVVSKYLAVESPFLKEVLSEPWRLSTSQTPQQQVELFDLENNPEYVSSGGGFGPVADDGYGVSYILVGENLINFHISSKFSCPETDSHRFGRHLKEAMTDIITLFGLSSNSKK
UniProt Q92905, whole entry, looked up: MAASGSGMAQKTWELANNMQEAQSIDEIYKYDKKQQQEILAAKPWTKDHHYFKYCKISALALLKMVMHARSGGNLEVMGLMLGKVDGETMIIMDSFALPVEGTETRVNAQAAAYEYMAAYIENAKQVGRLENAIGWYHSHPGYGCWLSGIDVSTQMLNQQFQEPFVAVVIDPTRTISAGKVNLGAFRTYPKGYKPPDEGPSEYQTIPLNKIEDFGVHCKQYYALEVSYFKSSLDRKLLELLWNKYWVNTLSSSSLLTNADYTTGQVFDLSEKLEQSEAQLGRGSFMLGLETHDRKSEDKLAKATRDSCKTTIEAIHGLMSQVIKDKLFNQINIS
UniProt Q6UXH1: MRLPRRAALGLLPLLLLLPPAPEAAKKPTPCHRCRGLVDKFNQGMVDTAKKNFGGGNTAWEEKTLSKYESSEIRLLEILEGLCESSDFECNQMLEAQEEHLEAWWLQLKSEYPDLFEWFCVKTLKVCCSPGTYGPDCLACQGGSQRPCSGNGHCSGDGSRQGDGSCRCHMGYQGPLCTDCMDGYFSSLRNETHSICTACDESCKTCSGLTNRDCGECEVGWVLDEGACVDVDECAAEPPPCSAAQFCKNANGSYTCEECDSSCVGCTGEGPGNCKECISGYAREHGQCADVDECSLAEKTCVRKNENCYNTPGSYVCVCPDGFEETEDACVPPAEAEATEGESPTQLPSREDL
UniProt O75629: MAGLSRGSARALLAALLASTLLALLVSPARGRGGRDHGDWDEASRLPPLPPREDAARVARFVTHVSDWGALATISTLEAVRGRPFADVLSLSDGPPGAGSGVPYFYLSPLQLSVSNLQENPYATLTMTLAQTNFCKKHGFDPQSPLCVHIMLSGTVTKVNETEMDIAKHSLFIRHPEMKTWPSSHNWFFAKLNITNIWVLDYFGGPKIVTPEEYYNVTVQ
UniProt O14579: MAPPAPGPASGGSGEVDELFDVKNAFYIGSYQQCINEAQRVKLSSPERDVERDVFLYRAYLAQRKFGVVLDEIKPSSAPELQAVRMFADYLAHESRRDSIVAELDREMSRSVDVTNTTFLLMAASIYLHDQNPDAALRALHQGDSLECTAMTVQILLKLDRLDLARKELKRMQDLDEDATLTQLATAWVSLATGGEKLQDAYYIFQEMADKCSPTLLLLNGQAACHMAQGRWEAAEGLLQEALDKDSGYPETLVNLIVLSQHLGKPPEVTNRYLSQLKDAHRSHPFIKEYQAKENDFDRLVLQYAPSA
UniProt P16220: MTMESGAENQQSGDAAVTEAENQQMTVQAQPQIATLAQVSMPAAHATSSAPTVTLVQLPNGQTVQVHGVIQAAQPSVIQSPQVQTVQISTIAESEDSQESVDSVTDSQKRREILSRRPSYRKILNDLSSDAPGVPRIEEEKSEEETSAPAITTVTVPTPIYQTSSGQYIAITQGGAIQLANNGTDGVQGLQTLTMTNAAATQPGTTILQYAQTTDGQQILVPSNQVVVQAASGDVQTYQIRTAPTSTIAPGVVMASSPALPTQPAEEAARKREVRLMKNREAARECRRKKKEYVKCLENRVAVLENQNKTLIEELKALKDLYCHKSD
UniProt P31327: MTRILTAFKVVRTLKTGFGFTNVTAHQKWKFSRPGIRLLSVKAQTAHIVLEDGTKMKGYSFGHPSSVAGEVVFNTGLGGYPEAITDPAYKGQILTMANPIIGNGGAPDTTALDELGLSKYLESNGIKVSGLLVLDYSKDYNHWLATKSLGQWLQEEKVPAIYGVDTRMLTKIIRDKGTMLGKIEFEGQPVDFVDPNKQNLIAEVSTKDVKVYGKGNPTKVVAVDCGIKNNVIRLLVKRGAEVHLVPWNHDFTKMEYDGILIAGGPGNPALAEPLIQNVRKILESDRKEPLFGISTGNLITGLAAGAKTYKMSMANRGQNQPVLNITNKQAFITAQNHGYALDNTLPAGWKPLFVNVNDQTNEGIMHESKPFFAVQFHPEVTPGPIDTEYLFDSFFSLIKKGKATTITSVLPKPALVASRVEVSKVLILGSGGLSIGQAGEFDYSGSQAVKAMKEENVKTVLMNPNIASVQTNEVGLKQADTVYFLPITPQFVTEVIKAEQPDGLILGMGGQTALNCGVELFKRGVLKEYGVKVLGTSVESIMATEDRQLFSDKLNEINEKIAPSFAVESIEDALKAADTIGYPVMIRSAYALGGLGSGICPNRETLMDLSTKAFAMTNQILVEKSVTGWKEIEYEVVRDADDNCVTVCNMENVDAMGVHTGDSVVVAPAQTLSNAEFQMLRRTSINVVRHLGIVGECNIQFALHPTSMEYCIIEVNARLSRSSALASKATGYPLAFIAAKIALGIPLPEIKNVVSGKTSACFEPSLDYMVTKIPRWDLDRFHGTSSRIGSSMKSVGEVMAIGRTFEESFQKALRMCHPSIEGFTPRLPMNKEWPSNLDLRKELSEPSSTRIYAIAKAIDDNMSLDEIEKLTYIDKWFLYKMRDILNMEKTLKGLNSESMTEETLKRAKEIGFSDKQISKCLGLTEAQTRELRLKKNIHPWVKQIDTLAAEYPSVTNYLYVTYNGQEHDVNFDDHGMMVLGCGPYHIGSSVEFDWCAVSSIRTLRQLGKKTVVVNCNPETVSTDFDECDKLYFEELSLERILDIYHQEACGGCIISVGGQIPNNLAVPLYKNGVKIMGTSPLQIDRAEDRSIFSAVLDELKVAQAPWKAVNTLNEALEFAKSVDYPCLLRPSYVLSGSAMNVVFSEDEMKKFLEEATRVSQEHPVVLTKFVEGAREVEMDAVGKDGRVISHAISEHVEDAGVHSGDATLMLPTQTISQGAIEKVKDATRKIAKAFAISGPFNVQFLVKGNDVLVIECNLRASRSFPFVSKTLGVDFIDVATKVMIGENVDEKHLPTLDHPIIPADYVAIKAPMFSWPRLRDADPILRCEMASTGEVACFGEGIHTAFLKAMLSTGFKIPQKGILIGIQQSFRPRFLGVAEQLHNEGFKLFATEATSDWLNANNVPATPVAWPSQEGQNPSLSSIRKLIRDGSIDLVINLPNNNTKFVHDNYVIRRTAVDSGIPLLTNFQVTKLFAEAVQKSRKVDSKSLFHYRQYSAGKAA

Columns and labels:
Test in all cases: log2 fold change, soluble protein after heating vs DMSO (PISA); higher = thermal stabilisation; K562 cells, 10 uM, 30 min; active = over 0.2 and 3.5 SD of the protein, either way, in both replicates (recomputed)
[1] = compound: CN1CCN(CCOc2cc(OC3CCOCC3)c3c(Nc4c(Cl)ccc5c4OCO5)ncnc3c2)CC1 [saracatinib]
In short: (§1)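 Quantification of soluble protein used TMTpro 16plex LC-MS/MS, with channel sums equalised. Samples were the supernatant after 21,000xg for 90 min of pooled aliquots from K562 cells (2×10^6 cells/mL) treated with 10 μM compound for 30 min, heated for 3 min over 48°C-58°C, and extracted in PBS with 0.5% NP-40 at 4°C. Values, from duplicates, describe thermal stability against control samples on a log2 fold-change scale.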

[2] = compound: CN1CCN(c2nc(C3=C(c4c[nH]c5ccccc45)C(=O)NC3=O)c3ccccc3n2)CC1 [sotrastaurin]
In short: as §1

[3] = compound: CN1CC[C@H](c2c(O)cc(O)c3c(=O)cc(-c4ccccc4Cl)oc23)[C@H](O)C1 [alvocidib]
In short: as §1

[4] = compound: CN1CCc2c(c3ccccc3n2Cc2ccc(C(=O)NO)cc2)C1 [Tubastatin A]
In short: as §1

[5] = compound: CNC(=O)C1=CC=CC=C1NC2=NC(=NC=C2Cl)NC3=C(C=C(C=C3)N4CCOCC4)OC
In short: as §1

[6] = compound: CNC(=O)c1ccc(Nc2ncc(C(F)(F)F)c(NCc3nccnc3N(C)S(C)(=O)=O)n2)cc1 [defactinib]
In short: as §1

[7] = compound: CNCc1ccc(-c2[nH]c3cc(F)cc4c3c2CCNC4=O)cc1 [rucaparib]
In short: as §1

[8] = compound: CNc1nc(-c2ccc3c(N)n[nH]c3c2)cc(N2C[C@@H](C(=O)NC3CCCCC3)CC[C@H]2C)n1
In short: as §1

[9] = compound: COC(=O)N[C@@H](C)CNc1nccc(-c2cn(C(C)C)nc2-c2cc(Cl)cc(NS(C)(=O)=O)c2F)n1 [encorafenib]
In short: as §1

[10] = compound: COC(=O)[C@H](CCSC)NC(=O)C1=C(C=C(C=C1)NC[C@H](CS)N)C2=CC=CC=C2
In short: as §1

[11] = compound: COC1=CC=C(C=C1)CN2C=CC3=C2C=C(C=C3)C(=O)NO
In short: as §1

[12] = compound: CON(C)C(=O)N1N=C(c2cc(F)ccc2F)S[C@@]1(CCCN)c1ccccc1 [filanesib]
In short: as §1

[13] = compound: CO[C@H]1C[C@@H]2CC[C@@H](C)[C@@](O)(O2)C(=O)C(=O)N2CCCC[C@H]2C(=O)O[C@H]([C@H](C)C[C@@H]2CC[C@H](n3cnnn3)[C@H](OC)C2)CC(=O)[C@H](C)/C=C(\C)[C@@H](O)[C@@H](OC)C(=O)[C@H](C)C[C@H](C)/C=C/C=C/C=C/1C [zotarolimus]
In short: as §1

[14] = compound: COc1cc(C(=O)O)ccc1NC(=O)[C@@H]1N[C@@H](CC(C)(C)C)[C@](C#N)(c2ccc(Cl)cc2F)[C@H]1c1cccc(Cl)c1F [idasanutlin]
In short: as §1

[15] = compound: COc1cc(Nc2ncc3c(n2)-c2ccc(Cl)cc2C(c2c(F)cccc2OC)=NC3)ccc1C(=O)O [alisertib]
In short: as §1

[16] = compound: COc1cc2nc(-c3cc(F)ccc3O)nc(N[C@@H]3CNC[C@H]3C(C)(C)O)c2cc1OC
In short: as §1

[17] = compound: COc1cc2ncnc(Nc3ccc(F)c(Cl)c3)c2cc1OCCCN1CCOCC1 [gefitinib]
In short: as §1

[18] = compound: COc1cccc2cc(-c3nc([C@H]4CC[C@H](C(=O)O)CC4)n4ncnc(N)c34)[nH]c12
In short: as §1

[19] = compound: CS(=O)(=O)CCNCc1ccc(-c2ccc3ncnc(Nc4ccc(OCc5cccc(F)c5)c(Cl)c4)c3c2)o1 [lapatinib]
In short: as §1

[20] = compound: CS(=O)(=O)N1CCN(Cc2cc3nc(-c4cccc5[nH]ncc45)nc(N4CCOCC4)c3s2)CC1 [pictilisib]
In short: as §1

| Target | log2 fold change [1] | log2 fold change [2] | log2 fold change [3] | log2 fold change [4] | log2 fold change [5] | log2 fold change [6] | log2 fold change [7] | log2 fold change [8] | log2 fold change [9] | log2 fold change [10] | log2 fold change [11] | log2 fold change [12] | log2 fold change [13] | log2 fold change [14] | log2 fold change [15] | log2 fold change [16] | log2 fold change [17] | log2 fold change [18] | log2 fold change [19] | log2 fold change [20] |
| --- | --- | --- | --- | --- | --- | --- | --- | --- | --- | --- | --- | --- | --- | --- | --- | --- | --- | --- | --- | --- |
| CRYZL1 (UniProt O95825) | inactive: 0.032 | inactive: 0.039 | inactive: 0.008 | inactive: -0.027 | inactive: -0.028 | inactive: -0.014 | inactive: -0.048 | inactive: -0.021 | inactive: -0.043 | inactive: 0.015 | inactive: -0.018 | inactive: -0.061 | inactive: -0.011 | inactive: -0.05 | inactive: -0.025 | inactive: 0.035 | inactive: -0.034 | inactive: 0.052 | inactive: -0.015 | inactive: 0.053 |
| CRACR2A isoform 2 (UniProt Q9BSW2) | inactive: 0.021 | inactive: 0.029 | inactive: 0.008 | inactive: 0.023 | inactive: -0.028 | inactive: -0.017 | inactive: -0.015 | inactive: 0.036 | inactive: 0.046 | inactive: 0.052 | inactive: 0.019 | inactive: 0.03 | inactive: -0.013 | inactive: -0.002 | inactive: -0.062 | inactive: 0.186 | inactive: 0.092 | inactive: 0.082 | inactive: -0.007 | inactive: 0.138 |
| COQ8A (UniProt Q8NI60) | inactive: 0.07 | inactive: -0.008 | inactive: -0.056 | inactive: -0.008 | inactive: 0.075 | inactive: -0.068 | inactive: -0.08 | inactive: 0.061 | inactive: 0.063 | inactive: -0.061 | inactive: -0.003 | inactive: -0.015 | inactive: 0.011 | inactive: -0.099 | inactive: -0.037 | inactive: -0.06 | inactive: 0.065 | inactive: 0.072 | inactive: 0.059 | inactive: 0.009 |
| COX19 (UniProt Q49B96) | inactive: 0.196 | inactive: 0.121 | inactive: -0.035 | inactive: 0.023 | inactive: -0.025 | inactive: -0.041 | inactive: -0.05 | inactive: -0.074 | inactive: -0.02 | inactive: -0.002 | inactive: -0.017 | inactive: -0.053 | inactive: -0.015 | inactive: 0.05 | inactive: -0.044 | inactive: 0.007 | inactive: 0.033 | inactive: 0.057 | inactive: -0.011 | inactive: 0.005 |
| CPOX (UniProt P36551) | inactive: 0.003 | inactive: 0.058 | inactive: 0.031 | inactive: -0.02 | inactive: 0.037 | inactive: 0.029 | inactive: -0.061 | inactive: 0.017 | inactive: 0.011 | inactive: 0.01 | inactive: 0.057 | inactive: -0.075 | inactive: -0.018 | inactive: 0.021 | inactive: -0.054 | inactive: -0.006 | inactive: 0.033 | inactive: 0.007 | inactive: -0.03 | inactive: 0.067 |
| CORO1A (UniProt P31146) | inactive: -0.091 | inactive: -0.006 | inactive: -0.032 | inactive: 0.049 | inactive: 0.086 | inactive: -0.016 | inactive: -0.014 | inactive: 0.04 | inactive: 0.02 | inactive: 0.006 | inactive: 0.03 | inactive: -0.037 | inactive: -0.05 | inactive: -0.039 | inactive: -0.034 | inactive: 0.035 | inactive: 0.028 | inactive: -0.01 | inactive: 0.037 | inactive: 0.055 |
| CPT1A (UniProt P50416) | inactive: 0.021 | inactive: 0.075 | active: 0.578 | inactive: 0.142 | inactive: 0.161 | inactive: -0.087 | inactive: 0.054 | inactive: 0.148 | inactive: 0.069 | inactive: -0.04 | inactive: 0.073 | inactive: 0.204 | inactive: 0.118 | inactive: 0.086 | inactive: 0.235 | inactive: 0.308 | inactive: 0.028 | inactive: -0.151 | inactive: 0.1 | inactive: 0.257 |
| COPB2 (UniProt P35606) | inactive: 0.024 | inactive: 0.008 | inactive: -0.024 | inactive: 0.01 | inactive: 0.019 | inactive: -0.04 | inactive: 0.005 | inactive: 0.007 | inactive: 0.027 | inactive: -0.011 | inactive: 0.003 | inactive: 0.024 | inactive: 0.024 | inactive: -0.023 | inactive: -0.039 | inactive: 0.085 | inactive: 0.023 | inactive: 0.003 | inactive: 0.008 | inactive: -0.012 |
| COPS5 (UniProt Q92905) | inactive: 0.02 | inactive: -0.026 | inactive: -0.056 | inactive: -0.031 | inactive: 0.007 | inactive: -0.036 | inactive: -0.066 | inactive: -0.019 | inactive: 0.018 | inactive: 0.002 | inactive: 0.055 | inactive: -0.091 | inactive: 0.045 | inactive: -0.12 | inactive: -0.084 | inactive: -0.04 | inactive: -0.01 | inactive: 0.016 | inactive: 0.048 | inactive: 0.01 |
| CRELD2 isoform 5 (UniProt Q6UXH1) | inactive: -0.002 | inactive: -0.009 | inactive: 0.036 | inactive: -0.033 | inactive: -0.022 | inactive: 0.018 | inactive: -0.008 | inactive: 0.028 | inactive: -0.029 | inactive: 0.042 | inactive: 0 | inactive: -0.011 | inactive: -0.026 | inactive: -0.041 | inactive: -0.031 | inactive: -0.017 | inactive: -0.043 | inactive: -0.002 | inactive: 0.02 | inactive: -0.041 |
| COPS7B (UniProt Q9H9Q2) | inactive: 0.03 | inactive: 0.003 | inactive: -0.014 | inactive: -0.024 | inactive: 0.01 | inactive: -0.023 | inactive: 0.041 | inactive: 0.025 | inactive: 0.022 | inactive: -0.002 | inactive: 0.093 | inactive: 0.013 | inactive: 0.02 | inactive: 0.02 | inactive: -0.027 | inactive: -0.01 | inactive: -0.008 | inactive: 0.04 | inactive: 0.032 | inactive: 0.018 |
| CREG1 (UniProt O75629) | inactive: 0.031 | inactive: 0.081 | inactive: 0.001 | inactive: 0.02 | inactive: 0.045 | inactive: 0.003 | inactive: -0.01 | inactive: -0.016 | inactive: -0.029 | inactive: -0.033 | inactive: 0.009 | inactive: 0.159 | inactive: -0.01 | inactive: -0.043 | inactive: 0.02 | inactive: 0.015 | inactive: -0.029 | inactive: 0.039 | inactive: -0.053 | inactive: 0.052 |
| CRYZ (UniProt Q08257) | inactive: 0.021 | inactive: 0.03 | inactive: -0.009 | inactive: 0.009 | inactive: -0.012 | inactive: -0.019 | inactive: -0.008 | inactive: -0.011 | inactive: -0.012 | inactive: -0.007 | inactive: -0.006 | inactive: -0.042 | inactive: -0.003 | inactive: -0.064 | inactive: 0.013 | inactive: 0.035 | inactive: -0.005 | inactive: 0.06 | inactive: -0.069 | inactive: 0.048 |
| COPE (UniProt O14579) | inactive: -0.03 | inactive: -0.014 | inactive: 0.008 | inactive: 0.02 | inactive: -0.026 | inactive: -0.054 | inactive: -0.08 | inactive: -0.005 | inactive: 0.04 | inactive: 0.049 | inactive: -0.05 | inactive: 0.067 | inactive: 0.018 | inactive: -0.048 | inactive: -0.044 | inactive: 0.05 | inactive: 0.004 | inactive: 0.003 | inactive: -0.036 | inactive: 0.117 |
| CREB1 (UniProt P16220) | inactive: 0 | inactive: 0.026 | inactive: 0.04 | inactive: -0.066 | inactive: 0.026 | inactive: -0.003 | inactive: -0.055 | inactive: 0.008 | inactive: 0.017 | inactive: 0.025 | inactive: -0.053 | inactive: -0.004 | inactive: -0.048 | inactive: -0.006 | inactive: -0.032 | inactive: 0.001 | inactive: 0.001 | inactive: 0.031 | inactive: -0.015 | inactive: 0.063 |
| CPS1 isoform 3 (UniProt P31327) | inactive: -0.105 | inactive: 0.071 | inactive: -0.02 | inactive: -0.101 | inactive: 0.055 | inactive: 0.083 | inactive: -0.268 | inactive: 0.097 | inactive: -0.021 | inactive: -0.011 | inactive: 0.041 | inactive: -0.055 | inactive: 0.022 | inactive: -0.125 | inactive: -0.005 | inactive: 0.06 | inactive: 0.064 | inactive: 0.149 | inactive: -0.204 | inactive: 0.133 |

Single records, as listed above. Values in the order: log2 fold change [1] | log2 fold change [2] | log2 fold change [3] | log2 fold change [4] | log2 fold change [5] | log2 fold change [6] | log2 fold change [7] | log2 fold change [8] | log2 fold change [9] | log2 fold change [10] | log2 fold change [11] | log2 fold change [12] | log2 fold change [13] | log2 fold change [14] | log2 fold change [15] | log2 fold change [16] | log2 fold change [17] | log2 fold change [18] | log2 fold change [19] | log2 fold change [20]
CRACR2A isoform 2 (UniProt Q9BSW2) as listed: inactive: 0.021 | inactive: 0.029 | inactive: 0.008 | inactive: 0.023 | inactive: -0.028 | inactive: -0.017 | inactive: -0.015 | inactive: 0.036 | inactive: 0.046 | inactive: 0.052 | inactive: 0.019 | inactive: 0.03 | inactive: -0.013 | inactive: -0.002 | inactive: -0.062 | inactive: 0.186 | inactive: 0.092 | inactive: 0.082 | inactive: -0.007 | inactive: 0.138
CRELD2 isoform 5 (UniProt Q6UXH1) as listed: inactive: -0.002 | inactive: -0.009 | inactive: 0.036 | inactive: -0.033 | inactive: -0.022 | inactive: 0.018 | inactive: -0.008 | inactive: 0.028 | inactive: -0.029 | inactive: 0.042 | inactive: 0 | inactive: -0.011 | inactive: -0.026 | inactive: -0.041 | inactive: -0.031 | inactive: -0.017 | inactive: -0.043 | inactive: -0.002 | inactive: 0.02 | inactive: -0.041
